{
  "source": "the supplement of paper PMC8728848",
  "experiment_in_all_cases": "glycan array binding signal (z-score within array); higher = stronger binding",
  "settings_in_all_cases": "glycan notation: IUPAC condensed, linker removed",
  "key": {"[1]": {"test_system": "Fuc(a1-2)Gal(b1-3)GalNAc(a1-3)[Fuc(a1-2)]Gal(b1-4)GlcNAc", "procedure,_shortened": "(§1)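 The binding signal is a Z-score computed within each array and averaged over linkers. Arrays of the same protein sequence at different concentrations or buffers were also averaged together. Data originate from 3228 arrays in the Consortium for Functional Glycomics database, kept only where the protein sequence was available.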"}, "[2]": {"test_system": "Fuc(a1-2)Gal(b1-3)GalNAc(a1-3)[Fuc(a1-2)]Gal(b1-4)Glc", "procedure,_shortened": "as §1"}, "[3]": {"test_system": "Fuc(a1-2)Gal(b1-3)GalNAc(b1-3)Gal(a1-4)Gal(b1-4)Glc", "procedure,_shortened": "as §1"}, "[4]": {"test_system": "Fuc(a1-2)Gal(b1-3)GalNAc(b1-3)Gal", "procedure,_shortened": "as §1"}, "[5]": {"test_system": "Fuc(a1-2)Gal(b1-3)GalNAc(b1-4)[Neu5Ac(a2-3)]Gal(b1-4)Glc", "procedure,_shortened": "as §1"}, "Fuc(a1-2)Gal(b1-3)GalNAc": {"test_system": "Fuc(a1-2)Gal(b1-3)GalNAc", "procedure,_shortened": "as §1"}, "[6]": {"test_system": "Fuc(a1-2)Gal(b1-3)GlcNAc(b1-2)Man(a1-3)[Fuc(a1-2)Gal(b1-3)GlcNAc(b1-2)Man(a1-6)]Man(b1-4)GlcNAc(b1-4)GlcNAc", "procedure,_shortened": "as §1"}, "[7]": {"test_system": "Fuc(a1-2)Gal(b1-3)GlcNAc(b1-2)Man(a1-3)[Fuc(a1-2)Gal(b1-3)GlcNAc(b1-2)Man(a1-6)]Man(b1-4)GlcNAc(b1-4)[Fuc(a1-6)]GlcNAc", "procedure,_shortened": "as §1"}, "[8]": {"test_system": "Fuc(a1-2)Gal(b1-3)GlcNAc(b1-3)Gal(b1-4)Glc", "procedure,_shortened": "as §1"}, "[9]": {"test_system": "Fuc(a1-2)Gal(b1-3)GlcNAc(b1-3)GalNAc", "procedure,_shortened": "as §1"}, "[10]": {"test_system": "Fuc(a1-2)Gal(b1-3)GlcNAc(b1-3)[Fuc(a1-2)Gal(b1-3)GlcNAc(b1-6)]GalNAc", "procedure,_shortened": "as §1"}, "[11]": {"test_system": "Fuc(a1-2)Gal(b1-3)GlcNAc(b1-3)[Gal(b1-4)GlcNAc(b1-6)]Gal(b1-4)Glc", "procedure,_shortened": "as §1"}, "[12]": {"test_system": "Fuc(a1-2)Gal(b1-3)GlcNAc(b1-3)[Neu5Ac(a2-6)Gal(b1-4)GlcNAc(b1-6)]Gal(b1-4)Glc", "procedure,_shortened": "as §1"}, "[13]": {"test_system": "Fuc(a1-2)Gal(b1-3)GlcNAc6S", "procedure,_shortened": "as §1"}, "Fuc(a1-2)Gal(b1-3)GlcNAc": {"test_system": "Fuc(a1-2)Gal(b1-3)GlcNAc", "procedure,_shortened": "as §1"}, "[14]": {"test_system": "Fuc(a1-2)Gal(b1-3)[Fuc(a1-4)]GlcNAc(b1-2)Man(a1-3)[Fuc(a1-2)Gal(b1-3)[Fuc(a1-4)]GlcNAc(b1-2)Man(a1-3)]Man(b1-4)GlcNAc(b1-4)GlcNAc", "procedure,_shortened": "as §1"}, "[15]": {"test_system": "Fuc(a1-2)Gal(b1-3)[Fuc(a1-4)]GlcNAc(b1-2)Man(a1-3)[Fuc(a1-2)Gal(b1-3)[Fuc(a1-4)]GlcNAc(b1-2)Man(a1-6)]Man(b1-4)GlcNAc(b1-4)[Fuc(a1-6)]GlcNAc(b1-4)[Fuc(a1-6)]GlcNAc", "procedure,_shortened": "as §1"}, "[16]": {"test_system": "Fuc(a1-2)Gal(b1-3)[Fuc(a1-4)]GlcNAc(b1-3)[Fuc(a1-3)[Gal(b1-4)]GlcNAc(b1-6)]Gal(b1-4)Glc", "procedure,_shortened": "as §1"}, "[17]": {"test_system": "Fuc(a1-2)Gal(b1-3)[Fuc(a1-4)]GlcNAc(b1-3)[Gal(b1-4)GlcNAc(b1-6)]Gal(b1-4)Glc", "procedure,_shortened": "as §1"}, "[18]": {"test_system": "Fuc(a1-2)Gal(b1-3)[Fuc(a1-4)]GlcNAc", "procedure,_shortened": "as §1"}, "[19]": {"test_system": "Fuc(a1-2)Gal(b1-4)Fuc(a1-3)]GlcNAc(b1-2)Man(a1-3)[Fuc(a1-2)Gal(b1-4)[Fuc(a1-3)]GlcNAc(b1-2)Man(a1-6)]Man(b1-4)GlcNAc(b1-4)GlcNAc", "procedure,_shortened": "as §1"}, "Fuc(a1-2)Gal(b1-4)Glc6S": {"test_system": "Fuc(a1-2)Gal(b1-4)Glc6S", "procedure,_shortened": "as §1"}, "[20]": {"test_system": "Fuc(a1-2)Gal(b1-4)GlcNAc(b1-2)Man(a1-3)[Fuc(a1-2)Gal(b1-4)GlcNAc(b1-2)Man(a1-6)]Man(b1-4)GlcNAc(b1-4)GlcNAc", "procedure,_shortened": "as §1"}, "[21]": {"test_system": "Fuc(a1-2)Gal(b1-4)GlcNAc(b1-2)Man(a1-3)[Fuc(a1-2)Gal(b1-4)GlcNAc(b1-2)Man(a1-6)]Man(b1-4)GlcNAc(b1-4)[Fuc(a1-6)]GlcNAc", "procedure,_shortened": "as §1"}, "[22]": {"test_system": "Fuc(a1-2)Gal(b1-4)GlcNAc(b1-2)Man", "procedure,_shortened": "as §1"}, "[23]": {"test_system": "Fuc(a1-2)Gal(b1-4)GlcNAc(b1-2)[Fuc(a1-2)Gal(b1-4)GlcNAc(b1-4)]Man(a1-3)[Fuc(a1-2)Gal(b1-4)GlcNAc(b1-2)Man(a1-6)]Man(b1-4)GlcNAc(b1-4)GlcNAc", "procedure,_shortened": "as §1"}, "[24]": {"test_system": "Fuc(a1-2)Gal(b1-4)GlcNAc(b1-3)Gal(b1-4)GlcNAc(b1-2)Man(a1-3)[Fuc(a1-2)Gal(b1-4)GlcNAc(b1-3)Gal(b1-4)GlcNAc(b1-2)Man(a1-6)]Man(b1-4)GlcNAc(b1-4)GlcNAc", "procedure,_shortened": "as §1"}, "[25]": {"test_system": "Fuc(a1-2)Gal(b1-4)GlcNAc(b1-3)Gal(b1-4)GlcNAc(b1-3)Gal(b1-4)GlcNAc", "procedure,_shortened": "as §1"}, "[26]": {"test_system": "Fuc(a1-2)Gal(b1-4)GlcNAc(b1-3)Gal(b1-4)GlcNAc", "procedure,_shortened": "as §1"}, "[27]": {"test_system": "Fuc(a1-2)Gal(b1-4)GlcNAc(b1-3)GalNAc", "procedure,_shortened": "as §1"}, "[28]": {"test_system": "Fuc(a1-2)Gal(b1-4)GlcNAc(b1-3)[Fuc(a1-2)Gal(b1-4)GlcNAc(b1-6)]GalNAc", "procedure,_shortened": "as §1"}, "[29]": {"test_system": "Fuc(a1-2)Gal(b1-4)GlcNAc(b1-3)[Fuc(a1-3)[Gal(b1-4)]GlcNAc(b1-6)]Gal(b1-4)Glc", "procedure,_shortened": "as §1"}},
  "note": "The other results are listed elsewhere or left out.",
  "data": [
    {"substance": "MpAFP RI GFP (Marinomonas primoryensis)", "values": [
      {"measurement": "glycan array binding signal (z-score)", "setting": "[1]", "value": -0.595},
      {"measurement": "glycan array binding signal (z-score)", "setting": "[2]", "value": -0.554},
      {"measurement": "glycan array binding signal (z-score)", "setting": "[3]", "value": -0.144},
      {"measurement": "glycan array binding signal (z-score)", "setting": "[4]", "value": -0.277},
      {"measurement": "glycan array binding signal (z-score)", "setting": "[5]", "value": -0.548},
      {"measurement": "glycan array binding signal (z-score)", "setting": "Fuc(a1-2)Gal(b1-3)GalNAc", "value": -0.385},
      {"measurement": "glycan array binding signal (z-score)", "setting": "[6]", "value": 1.38},
      {"measurement": "glycan array binding signal (z-score)", "setting": "[7]", "value": 0.906},
      {"measurement": "glycan array binding signal (z-score)", "setting": "[8]", "value": -0.496},
      {"measurement": "glycan array binding signal (z-score)", "setting": "[9]", "value": -0.256},
      {"measurement": "glycan array binding signal (z-score)", "setting": "[10]", "value": 0.462},
      {"measurement": "glycan array binding signal (z-score)", "setting": "[11]", "value": -0.01},
      {"measurement": "glycan array binding signal (z-score)", "setting": "[12]", "value": -0.127},
      {"measurement": "glycan array binding signal (z-score)", "setting": "[13]", "value": 0.096},
      {"measurement": "glycan array binding signal (z-score)", "setting": "Fuc(a1-2)Gal(b1-3)GlcNAc", "value": -0.605},
      {"measurement": "glycan array binding signal (z-score)", "setting": "[14]", "value": 1.15},
      {"measurement": "glycan array binding signal (z-score)", "setting": "[15]", "value": 0.68},
      {"measurement": "glycan array binding signal (z-score)", "setting": "[16]", "value": -0.317},
      {"measurement": "glycan array binding signal (z-score)", "setting": "[17]", "value": -0.303},
      {"measurement": "glycan array binding signal (z-score)", "setting": "[18]", "value": -0.05},
      {"measurement": "glycan array binding signal (z-score)", "setting": "[19]", "value": 2.25},
      {"measurement": "glycan array binding signal (z-score)", "setting": "Fuc(a1-2)Gal(b1-4)Glc6S", "value": 0.747},
      {"measurement": "glycan array binding signal (z-score)", "setting": "[20]", "value": -0.295},
      {"measurement": "glycan array binding signal (z-score)", "setting": "[21]", "value": 0.806},
      {"measurement": "glycan array binding signal (z-score)", "setting": "[22]", "value": 0.722},
      {"measurement": "glycan array binding signal (z-score)", "setting": "[23]", "value": 0.458},
      {"measurement": "glycan array binding signal (z-score)", "setting": "[24]", "value": 1.06},
      {"measurement": "glycan array binding signal (z-score)", "setting": "[25]", "value": 0.489},
      {"measurement": "glycan array binding signal (z-score)", "setting": "[26]", "value": -0.547},
      {"measurement": "glycan array binding signal (z-score)", "setting": "[27]", "value": -0.085},
      {"measurement": "glycan array binding signal (z-score)", "setting": "[28]", "value": -0.441},
      {"measurement": "glycan array binding signal (z-score)", "setting": "[29]", "value": -0.265}
    ]}
  ]
}
